Patent US11479611B2 (China Medical University Hospital, priority 2019, dated 2022)
At least one structure is not confirmed: it was looked up by name or label, or the drawing left a doubt.

Tested on: human malignant brain tumor cell line DBTRG
Assay: tumor cell death (cytotoxicity), Annexin V-FITC/PI flow cytometry
Assay type: cell-based
Conditions: treated alone; temozolomide 80 μg/mL or 1×10^5 parental cells

In the case of `Cn1nnc2c(C(N)=O)ncn2c1=O` [temozolomide], the “death rate of DBTRG compared to the control (in words)” value is reported as “increased, but there is no statistically significant difference compared to the control”.
